Experimental data taken from PubChem BioAssay AID330 (DTP/NCI, 2004).
The list shows only some results of the screen, not a fair sample: it is rich in T/C values a quarter to a half above the control, in often repeated tests (any T/C) and in doses without a T/C. Further doses and runs are listed elsewhere. T/C: endpoint of the treated group in % of that of the vehicle group. Some entries give survivors of the animals treated and no T/C: the source files T/C as zero there, which appears to mark a toxic dose or a test without result, not a measured value. Some doses without a T/C left all or most animals alive at the check, yet need not have been tolerated: survival well below the control is almost never listed, so the zero probably covers shortened survival too. Survivors were counted at the toxicity check, usually on the fifth day, unless a day is given; later deaths do not show. Schedules are NCI's codes, read here as Q, the interval in days (D) or hours (H), X, the number of doses. For survival time, this PubChem deposit counts one and a half times the control or more as active, and values a quarter to a half above the control carry no call in these data; other NCI protocols may use other cut-offs. Some entries were tested several times; the values are given in rising order. Some T/C values are followed by the survivors on the day toxicity was checked, most often the fifth; without a count, all were alive then.

Tested on: P388 leukemia ip, CD2F1 mice, survival T/C
Test: NCI In Vivo Anticancer Drug Screen. Data for tumor model P388 Leukemia (intraperitoneal) in CD2F1 (CDF1) mice
Conditions: T/C endpoint: median survival time, higher T/C = longer survival
[1] = dose: 100.0 mg/kg/injection, schedule: Q01DX009 (ip), vehicle: saline
[2] = dose: 400.0 mg/kg/injection, schedule: Q01DX009 (ip), vehicle: saline with Tween-80
[3] = dose: 1.5 mg/kg/injection, schedule: Q01DX009 (ip), vehicle: saline
[4] = dose: 100.0 mg/kg/injection, schedule: Q01DX009 (ip), vehicle: saline with Tween-80

## CCCCCCCCCCCC[N+]1(CC)CCCCC1
dose: 3.12 mg/kg/injection, schedule: Q01DX009 (ip), vehicle: saline
  survivor count: 2 of 6
dose: 6.25 mg/kg/injection, schedule: Q01DX009 (ip), vehicle: saline
  survivor count: 5 of 6
dose: 12.5 mg/kg/injection, schedule: Q01DX009 (ip), vehicle: saline
  survivor count: 2 of 6
dose: 50.0 mg/kg/injection, schedule: Q01DX009 (ip), vehicle: saline
  survivor count: 0 of 6
[1]
  survivor count: 0 of 6
dose: 200.0 mg/kg/injection, schedule: Q01DX009 (ip), vehicle: saline
  survivor count: 0 of 6

## Nc1ccc(CCCCc2ccc(Cl)c(S(=O)(=O)F)c2)c(Cl)c1
[2]
  survivor count: 6 of 6

## O=C1OC(=O)C2CCC12 (stereo not drawn)
[2]
  survivor count: 2 of 6

## O=C1CC(=O)N2C=CC=CC2=N1
[1]
  survivor count: 6 of 6

## CC[C@]12CN3CCc4c([nH]c5ccccc45)[C@@](C(=O)OC)(c4cc5c(cc4OC)N(C)[C@H]4[C@@](O)(C(=O)OC)[C@H](OC(C)=O)[C@]6(CC)C=CCN7CC[C@]54[C@@H]76)CC(C3)[C@H]1O2 (stereo partly drawn)
[3]
  T/C: 130 % of control
  survivor count: 5 of 6
dose: 3.0 mg/kg/injection, schedule: Q01DX009 (ip), vehicle: saline sonified
  T/C: 143 % of control
dose: 3.0 mg/kg/injection, schedule: Q01DX009 (ip), vehicle: saline
  T/C: 148 % of control
dose: 12.8 mg/kg/injection, schedule: Q01DX009 (ip), vehicle: saline
  T/C: 140 % of control

## O=C1OC2C(I)C3CC1C2C3 (stereo not drawn)
[4]
  survivor count: 5 of 6
dose: 100.0 mg/kg/injection, schedule: Q04DX003 (ip), vehicle: saline with Tween-80
  survivor count: 4 of 6

## COc1ccc2[nH]c3c(C)c4cc[n+](C)cc4c(C)c3c2c1
dose: 0.78 mg/kg/injection, schedule: Q01DX009 (ip), vehicle: saline
  T/C: 131 % of control
dose: 1.56 mg/kg/injection, schedule: Q01DX009 (ip), vehicle: saline
  T/C: 130 and 145 % of control
dose: 3.13 mg/kg/injection, schedule: Q01DX009 (ip), vehicle: saline
  T/C: 131 % of control

## CCN(CC)CCN(C)C(C)C(=O)Nc1ccccc1Cl (stereo not drawn)
dose: 240.0 mg/kg/injection, schedule: Q01DX005 (ip), vehicle: saline
  survivor count: 0 of 6

## Nc1ccc2c(SCCCCCCCCSc3c4ccccc4nc4cc(N)ccc34)c3ccccc3nc2c1
dose: 240.0 mg/kg/injection, schedule: Q01DX005 (ip), vehicle: saline with Tween-80
  survivor count: 4 of 6

## c1ccc2c(c1)Sc1ccccc1N2CC1CN2CCC1CC2 (stereo not drawn)
dose: 50.0 mg/kg/injection, schedule: Q01DX009 (ip), vehicle: saline with Tween-80
  survivor count: 0 of 6
[4]
  survivor count: 0 of 6
dose: 200.0 mg/kg/injection, schedule: Q01DX009 (ip), vehicle: saline with Tween-80
  survivor count: 0 of 6

## Nc1cccc(NCc2ccncc2)n1
dose: 50.0 mg/kg/injection, schedule: Q01DX005 (ip), vehicle: Klucel (hydroxypropylcellulose) (HPC), evaluated on day 20
  T/C: 109 [5 of 6 alive] and 122 % of control
dose: 50.0 mg/kg/injection, schedule: Q01DX005 (ip), vehicle: Klucel (hydroxypropylcellulose) (HPC), evaluated on day 30
  T/C: 105 and 108 % of control
dose: 200.0 mg/kg/injection, schedule: Q01DX005 (ip), vehicle: Klucel (hydroxypropylcellulose) (HPC)
  survivor count: 1 of 4

## O=[N+]([O-])c1ccc2c(NCCCCCCCCNc3c4ccccc4nc4cc([N+](=O)[O-])ccc34)c3ccccc3nc2c1
dose: 0.63 mg/kg/injection, schedule: Q01DX009 (ip), vehicle: other
  T/C: 129 % of control
dose: 1.25 mg/kg/injection, schedule: Q01DX009 (ip), vehicle: other
  T/C: 129 % of control
dose: 2.5 mg/kg/injection, schedule: Q01DX009 (ip), vehicle: other
  T/C: 132 % of control
dose: 5.0 mg/kg/injection, schedule: Q01DX009 (ip), vehicle: other
  T/C: 145 % of control
dose: 10.0 mg/kg/injection, schedule: Q01DX009 (ip), vehicle: other
  T/C: 145 % of control
dose: 20.0 mg/kg/injection, schedule: Q01DX009 (ip), vehicle: other
  T/C: 132 % of control
